PMC4569712
No constants are given. Whether binding was seen depends on the method and setting. In cells and extracts the contact can be indirect. Some entries that bind do so weakly or less than the wild type. Where a sequence is shown, tags or fusion partners need not be part of it.

By UniProt entry, the sequences of proteins in these tests, tags left out. Residues count along the entry.
UniProt Q61990, residues 1-81: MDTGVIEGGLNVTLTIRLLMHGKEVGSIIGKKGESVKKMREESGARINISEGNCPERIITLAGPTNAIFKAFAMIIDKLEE

Target: Flag-tagged PCBP2 (aa 1–81) (mouse) (UniProt Q61990)
Assay: co-IP; MEF cells co-transfected with Flag-tagged truncations and the FL HA-tagged partner; IP with anti-Flag antibody

binding: binds
B1: FL HA-tagged IRTKS (protein, UniProt Q9DBJ3 1-514)
chain: MSRGPEEVNRLTENTYRNVMEQFNPGLRNLINLGKNYEKAVNAMILAGKAYYDGVAKIGEIATGSPVSTELGHVLIEISSTHKKLNETLDENFKKFHKDIIHELEKKTELDVKYMNATLKRYQAEHRNKLDSLEKSQAELKKIRRKSQGGRNALKYEHKEIEYVETVTSRQSEIQKFIADGCKEALLEEKRRFCFLVDKHCSFASHIHYYHMQSAELLNSKLPRWQETCCDATKVPEKIMNMIEEIKTPISTPVSGTPQPSPMIERSKMIGKDYDTLSKYSPKMPPAPSVKAYTSPLIDMFNNPATAAQSSEKTNNSTANTGEDPSLQRSVSVATGLNMMKKQKVKTIFPHTAGNNKTLLSFAQGDVLTLLIPEEKDGWLYGEHDTTKARGWFPSSYTKLLEENEAMSVPTPSPAPVRSISTVDLTEKSSVVIPPPDYLECLSMGATSDKKAGAPKVPSASTFRAPVSRPDATSTSPSDANGTAKPPFLSGENPFATVKLRPTVTNDRSAPIIR
